Data reported in publication PMC4855144.

Amino acid sequences for entries named in this document (tags omitted). A change or cut given only in a name is not applied to a line headed by its entry.
UniProt P60953: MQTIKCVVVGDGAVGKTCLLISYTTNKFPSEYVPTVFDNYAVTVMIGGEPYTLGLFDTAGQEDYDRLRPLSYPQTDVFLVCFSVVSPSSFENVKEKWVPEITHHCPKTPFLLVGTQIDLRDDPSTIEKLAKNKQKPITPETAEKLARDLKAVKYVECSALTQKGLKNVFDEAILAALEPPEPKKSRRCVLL
UniProt P57737: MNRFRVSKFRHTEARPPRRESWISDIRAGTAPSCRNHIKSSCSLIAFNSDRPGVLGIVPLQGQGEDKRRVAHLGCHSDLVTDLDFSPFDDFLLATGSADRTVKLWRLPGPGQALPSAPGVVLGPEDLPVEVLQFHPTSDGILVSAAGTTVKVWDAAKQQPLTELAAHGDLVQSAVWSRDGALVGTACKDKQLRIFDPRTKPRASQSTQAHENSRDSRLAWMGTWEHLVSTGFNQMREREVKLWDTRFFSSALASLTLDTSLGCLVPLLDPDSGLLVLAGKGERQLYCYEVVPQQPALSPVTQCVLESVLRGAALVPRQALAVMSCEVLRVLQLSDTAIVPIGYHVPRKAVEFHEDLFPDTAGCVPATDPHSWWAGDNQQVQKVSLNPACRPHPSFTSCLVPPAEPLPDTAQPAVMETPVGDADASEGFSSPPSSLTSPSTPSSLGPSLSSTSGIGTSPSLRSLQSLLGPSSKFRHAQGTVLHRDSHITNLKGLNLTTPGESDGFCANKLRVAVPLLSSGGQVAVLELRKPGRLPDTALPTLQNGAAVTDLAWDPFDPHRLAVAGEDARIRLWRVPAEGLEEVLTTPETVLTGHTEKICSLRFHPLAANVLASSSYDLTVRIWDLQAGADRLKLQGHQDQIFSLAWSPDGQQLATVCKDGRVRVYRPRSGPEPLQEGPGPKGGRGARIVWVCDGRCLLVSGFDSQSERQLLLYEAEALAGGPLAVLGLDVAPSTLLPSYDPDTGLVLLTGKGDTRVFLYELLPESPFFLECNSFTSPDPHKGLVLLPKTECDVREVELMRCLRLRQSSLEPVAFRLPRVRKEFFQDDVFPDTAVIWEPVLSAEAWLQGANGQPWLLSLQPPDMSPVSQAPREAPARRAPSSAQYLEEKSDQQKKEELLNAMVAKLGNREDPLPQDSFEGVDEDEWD

Columns and labels:
[1] = target: GST-Cdc42 dominant negative (DN/T17N), preloaded with GDP (UniProt P60953); test: pull-down; Glutathione-Sepharose beads coated with GST alone or GST-GTPase fusions pre-loaded with GDP (DN) or GTPγS (CA), incubated with lysates of HEK293T cells expressing GFP-CRN7 WT or CRIB mutants; blot with GFP mAb K3-184-2 or anti-N-WASP; ImageJ quantification, input set at 100%; only the target purified
[2] = target: GST-Cdc42 constitutively active (CA/Q61L), preloaded with GTPγS (UniProt P60953); test: as above

binding [1]	binding [2]	Substance
binds	binds	GFP-Mut1 (GFP-CRN7 with SXP of the NT-CRIB changed to alanines) (from UniProt P57737)
binds	binds	GFP-Mut2 (GFP-CRN7 with LTXP of the CT-CRIB changed to alanines) (from UniProt P57737)

No constants are given. Whether binding was seen depends on the method and setting. Binding seen in cells or lysates may run through a third protein. Binding can be weak; no strength is given.
